From PMC11052316, “New Transferrin Receptor-Targeted Peptide–Doxorubicin Conjugates: Synthesis and In Vitro Antitumor Activity” (Molecules, 2024)

Experiments:
[1] = system: HepG2 cells; test: In vitro cytotoxicity, CCK-8 assay; format: cell-based, human; conditions: HepG2, 48 h, CCK-8, mean ± SD (n = 3)
Experimental: (§1) Human HepG2 hepatocellular carcinoma cells and human U87 glioblastoma cells were purchased from Procell Life Science & Technology Co., Ltd. (Wuhan, China), human A549 lung carcinoma cells were obtained from the School of Basic Medical Sciences, Chengde Medical University, human LO2 normal hepatic cells were purchased from Jennio Biotech Co., Ltd. (Guangzhou, China). The cells were cultured in DMEM (HepG2), MEM containing 1% non-essential amino acids (U87), and RPMI-1640 (A549 and LO2), supplemented with 10% fetal bovine serum (FBS) and 1% penicillin/streptomycin at 37 °C in a humidified atmosphere with 5% CO2.
(§2) A549, HepG2, U87, and LO2 cells were each seeded in 96-well cell culture plates at a density of 6 × 10^3 cells per well and incubated at 37 °C for 24 h. Then, cells were treated with serial concentrations of free DOX or the peptide–DOX conjugates for 48 h. After incubation, CCK-8 (10 μL) was added to each well and incubated for an additional 2 h. The absorbance of each well was measured at 450 nm with a reference wavelength of 630 nm by using a Multiskan GO microplate reader (Thermo Fisher Scientific, Waltham, MA, USA). Data for each cell line treated with free DOX or PDCs were obtained from three independent experiments.

[2] = system: A549 cells; test: In vitro cytotoxicity, CCK-8 assay; format: cell-based, human; conditions: A549, 48 h, CCK-8, mean ± SD (n = 3)
Experimental: as §1, §2

## COc1cccc2c1C(=O)c1c(O)c3c(c(O)c1C2=O)C[C@@](O)(C(=O)CO)C[C@@H]3O[C@H]1C[C@H](N)[C@H](O)[C@H](C)O1 [DOX, Doxorubicin]
[1]
  IC50: 1580 ± 190 nM
[2]
  IC50: 3550 ± 210 nM
